# Data reported in patent US20140004201A1, “Treatment of Vascular Diseases Using Encapsulated Cells Encoding and Secreting GLP-1, or a Fragment or Variant Thereof” (Biocompatibles UK Ltd., priority 2010, published 2014).
# Test system: hTERT-MSC cells
# Test: Expression level of active GLP in stably transfected hTERT-MSC cell clones
# Type: cell-based, human
# Details: stably expressing hTERT-MSC cell clones
row,Substance,active GLP per 10^6 cells and hour
1,GLP1(7-37)-IP2-GLP1(7-37) [construct #217],2.7 pmol
2,GLP-1(7-37) [construct #103],0.4 pmol
3,GLP-1(7-37)-IP2-extended with 11 AA [construct #317],0.6 pmol
